Assay results as given in US11180783B2, “Method for producing chiral amines” (VITO NV, priority 2017, dated 2021).

Assays:
[1] = membrane screening: rejection of HMW amino donors; conditions: 250 mM AD, 0.1 mM PLP, 100 mM CHES pH 9.5
TA_v2 = assay type: biochemical; conditions: Desal-DK membrane
Method: Reaction was performed in 600 mL volume containing 2 mg/mL of TA_v2 powder, 250 mM AD 6, 10 mM BA substrate (dissolved in DMSO) and 0.1 mM PLP in 100 mM CHES buffer, pH 9.5. The final DSMO concentration was 5% (v/v). After 16 h of reaction, 550 mL of reaction mixture was transferred into the membrane unit and 2 intermittent nanofiltration tests were performed. The remaining 50 mL of reaction mixture was used as control without filtration. After the first nanofiltration (6 h duration, DESAL® DK, 20 bar), the collected permeate and the retentate were mixed, and 5 mM of additional BA substrate were added. Additional substrate was added also to the control condition. After 16 h of reaction, the second nanofiltration was performed (5 h duration, DuraMem® 200, 20 bar). Reaction permeate and retentate samples were taken after distinct time periods and prepared for quantitative analysis.
Addition of BA (5 mM) was made to the enzymatic tank E-1 after 24 h reaction. The second nanofiltration was run after 39 h reaction (DuraMem® 200 membrane, 20 bar).

Row | Molecule | Rejection % ([1]; Desal-DK-GE) [%] | Rejection % ([1]; Duramem200) [%] | Rejection % ([1]; PuraMem selective) [%] | Rejection % ([1]; Puramem Flux) [%] | Rejection % ([1]; Puramem Performance) [%] | Rejection % ([1]; SolSep-10206) [%] | Rejection % ([1]; Synder NFW) [%] | Rejection % ([1]; Synder NFX) [%] | MPPA concentration after nanofiltration (TA_v2) [mM] | MPPA concentration before nanofiltration (TA_v2) [mM] | Rejection % ([1]; Alfalaval NF99) [%] | Rejection % ([1]; Dow NF90) [%] | Rejection % ([1]; GE KH Duracid) [%]
1 | Poly(propylene glycol) bis(2-aminopropyl ether) [AD 3] | 85.0 | 79.7 | <30 | <30 | <30 | <30 | 82.3 | 85.9 | – | – | – | – | –
2 | CC(N)CCc1ccccc1 (stereo not drawn) [1M3P, 1-methyl-3-phenylpropylamine] | – | – | – | – | – | – | – | – | 7.3 | 5.9 | – | – | –
3 | O,O′-bis(2-aminopropyl) polypropylene glycol-block-polyethylene glycol-block-polypropylene glycol [AD 6] | 87.5 | 85.7 | – | – | – | 83.8 | 85.1 | 85.9 | – | – | 83.2 | 83.0 | 62.2
